Reference: paper PMC6394020
No constants are given. Whether binding was seen depends on the method and setting. In cells and extracts the contact can be indirect.

B1: 14-3-3γ (protein, UniProt P61981 1-247)
chain: MVDREQLVQKARLAEQAERYDDMAAAMKNVTELNEPLSNEERNLLSVAYKNVVGARRSSWRVISSIEQKTSADGNEKKIEMVRAYREKIEKELEAVCQDVLSLLDNYLIKNCSETQYESKVFYLKMKGDYYRYLAEVATGEKRATVVESSEKAYSEAHEISKEHMQPTHPIRLGLALNYSVFYYEIQNAPEQACHLAKTAFDDAIAELDTLNEDSYKDSTLIMQLLRDNLTLWTSDQQDDDGGEGNN
B2: 14-3-3τ (protein, UniProt P27348 1-245)
chain: MEKTELIQKAKLAEQAERYDDMATCMKAVTEQGAELSNEERNLLSVAYKNVVGGRRSAWRVISSIEQKTDTSDKKLQLIKDYREKVESELRSICTTVLELLDKYLIANATNPESKVFYLKMKGDYFRYLAEVACGDDRKQTIDNSQGAYQEAFDISKKEMQPTHPIRLGLALNFSVFYYEILNNPELACTLAKTAFDEAIAELDTLNEDSYKDSTLIMQLLRDNLTLWTSDSAGEECDAAEGAEN

Target: GFP-NSP2 (non-structural protein 2 of PRRSV fused to GFP) (PRRSV (strain of the plasmid not stated))
Test: co-IP; GFP pull-down: 293T cells transfected with GFP-nsp2 or pEGFP-C1, lysed at 24 h; clarified lysates incubated with GFP-Trap beads 2 h at 4 °C; bound proteins eluted with 2 x SDS sample buffer; Western blot with antibodies against 14-3-3β, ε, γ and τ/ζ

Binder	binding
B1	no binding
B2	no binding
